# Counter-ions that a name gives are not always drawn. The list shows a part of the results. Single values are uncertain here, since repeats match poorly.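 In a drug-repurposing library screen, luminescence reads luciferase driven by eight TEAD-binding elements, stably integrated into human kidney-derived cells. Compounds scoring over five robust Z scores above the plate mean are called hits.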
# Tested on: HEK293A TEAD-LUC reporter
# Test: TEAD-luciferase reporter activity (YAP activation), robust Z score vs plate; higher = stronger YAP/TEAD activation
# Settings: 24 h
Structure (SMILES),TEAD-luciferase reporter activity (compound concentration: 200 nM),TEAD-luciferase reporter activity (compound concentration: 2 uM),TEAD-luciferase reporter activity (compound concentration: 10 uM)
CC1(C)OC[C@H]([C@@H](CS(=O)(=O)c2ccc(Oc3ccc(OC(F)(F)F)cc3)cc2)N(O)C=O)O1,inactive: -0.846,inactive: -1.18,inactive: 0.112
CC(CCc1ccc(C(N)=O)cc1)N(C[C@H](O)c1ccccc1)C[C@H](O)c1ccccc1 (stereo partly specified),inactive: 1.06,inactive: -0.477,inactive: 0.511
CNC(=O)[C@H](Cc1ccccc1)NC(=O)[C@H](CC(C)C)[C@H](CSc1cccs1)C(=O)NO [Batimastat],inactive: -0.305,inactive: -0.0898,inactive: -0.854
COC(=O)[C@H](C/C=C/c1ccc(N(C)c2ncccn2)cc1)NC(=O)c1ccccc1Cl,inactive: -0.818,inactive: 0.12,inactive: 0.89
Cc1c(CCCC(=O)O)cc(O)c(O)c1C,inactive: -0.659,inactive: 1.69,inactive: -0.786
CCCCN(CCCC)C(=O)CN1C[C@H](c2ccc3c(c2)OCO3)[C@@H](C(=O)O)[C@@H]1c1ccc(OC)cc1 [atrasentan],inactive: -2.61,inactive: 2.6,inactive: 0.216
C[C@@H]1C[C@H]2[C@@H]3C[C@H](F)C4=CC(=O)C=CC4(C)[C@@]3(F)[C@@H](O)CC2(C)[C@@]1(O)C(=O)SC1CCOC1=O (stereo partly specified) [Zoticasone],inactive: -1.52,inactive: 2.39,inactive: 3.22
CN(C)C[C@]1(c2ccc(Cl)c(Cl)c2)CC[C@](C)(O)CC1,inactive: -1.36,inactive: -1.93,inactive: 0.0184
NC/C(=C/F)CCc1ccc(F)cc1 [Mofegiline hydrochloride],inactive: -0.653,inactive: -1.15,inactive: 0.394
COc1ccc(CN2CCC(N3CCCNC3=O)CC2)cc1,inactive: -0.926,–,inactive: 3.96
CCOC(=O)N1CCN(C(=O)[C@H](Cc2cccc(C(=N)N)c2)NS(=O)(=O)c2c(C(C)C)cc(C(C)C)cc2C(C)C)CC1,inactive: -0.0838,inactive: -0.867,inactive: 0.321
N[C@H](C(=O)O)c1ccc(O)cc1 [Oxfenicine],inactive: -0.0724,inactive: 0.361,inactive: -0.0993
CC(=C/C(=O)O)/C(=C/c1ccc2cc3c(cc2c1)C(C)(C)CCC3(C)C)c1cccc(C(=O)O)c1,inactive: 4.11,inactive: -0.702,inactive: -1.86
CCOc1nnc(-c2cc(C(C)(C)C)c(O)c(C(C)(C)C)c2)s1,inactive: 1.6,inactive: 0.00982,inactive: 0.669
O=C(O)[C@H](Oc1cccc(C(F)(F)F)c1)c1ccc(Cl)cc1,inactive: 0.28,inactive: -0.957,inactive: 1.47
CCn1ncc2c(NC3CCOCC3)c(-c3nnc(Cc4sc(C)nc4C)o3)cnc21,inactive: -0.394,inactive: 0.83,inactive: -0.916
CC(=O)Oc1c(C)c(C)c2c(c1C)CC[C@@](C)(CCC[C@H](C)CCC[C@H](C)CCCC(C)C)O2 [Vitamin E acetate],inactive: -0.65,inactive: -0.133,inactive: 3.24
COC(=O)N/N=C/c1c[n+]([O-])c2ccccc2[n+]1[O-] [Carbadox],inactive: -0.246,–,inactive: 1.64
COc1cc2c(cc1OC)C(C)N(Cc1ccc(C)cc1)CC2 (stereo unspecified),inactive: -0.308,inactive: -0.819,inactive: -0.725
CCN(CC)CCO/N=C(\c1ccco1)c1ccc(OC)c(Cl)c1Cl [Diclofurime],inactive: -0.36,inactive: 0.224,inactive: -1.22
CN(CCCN1C(=O)CSC1c1cc(C(C)(C)C)c(O)c(C(C)(C)C)c1)CCOc1ccc2c(c1)OCO2 (stereo unspecified),inactive: -0.589,inactive: -1.33,inactive: 1.02
COC(=O)C[C@](O)(CCCC(C)(C)O)C(=O)O[C@@H]1C(OC)=C[C@]23CCCN2CCc2cc4c(cc2[C@H]13)OCO4 [Homoharringtonine],–,inactive: -3.7,–
COC(=O)C[C@](O)(CCCC(C)(C)O)C(=O)O[C@@H]1C(OC)=C[C@]23CCCN2CCc2cc4c(cc2[C@H]13)OCO4,inactive: 2.19,–,inactive: -0.594
CCCCCCC(=O)OCCN1CCN(CCCN2c3ccccc3Sc3ccc(C(F)(F)F)cc32)CC1,inactive: -0.818,inactive: 0.727,inactive: -0.697
CCOC(=O)[C@@H](N)CSC(=O)NC,inactive: -0.0377,inactive: -0.283,inactive: 0.236

# 3 entries from above in a different format:
Structure (SMILES) | TEAD-luciferase reporter activity (compound concentration: 200 nM) | TEAD-luciferase reporter activity (compound concentration: 2 uM) | TEAD-luciferase reporter activity (compound concentration: 10 uM)
COc1cc2c(cc1OC)C(C)N(Cc1ccc(C)cc1)CC2 (stereo unspecified) | inactive: -0.308 | inactive: -0.819 | inactive: -0.725
CCN(CC)CCO/N=C(\c1ccco1)c1ccc(OC)c(Cl)c1Cl [Diclofurime] | inactive: -0.36 | inactive: 0.224 | inactive: -1.22
CN(CCCN1C(=O)CSC1c1cc(C(C)(C)C)c(O)c(C(C)(C)C)c1)CCOc1ccc2c(c1)OCO2 (stereo unspecified) | inactive: -0.589 | inactive: -1.33 | inactive: 1.02

# Further entries

Structure (SMILES),TEAD-luciferase reporter activity (compound concentration: 200 nM),TEAD-luciferase reporter activity (compound concentration: 2 uM),TEAD-luciferase reporter activity (compound concentration: 10 uM)
COc1ccc(C2Cc3c(cccc3C(F)(F)F)N(CC3CCCN3)C(=O)C2OC(C)=O)cc1 (stereo unspecified),inactive: 0.525,inactive: 0.364,inactive: -0.439
Cc1ncccc1-c1cnc(NCc2c(F)ccc3c2CCO3)n2cnnc12 [EED inhibitor-1],inactive: -0.665,inactive: 0.239,inactive: -0.179
O=C(O)c1c[nH]c(=O)[nH]c1=O [Orazamide orotate],inactive: -0.964,inactive: -1.66,inactive: -0.528
CN(C)CC#CC=C1c2ccccc2C=Cc2ccccc21,inactive: -0.455,inactive: -0.295,inactive: -1.48
O=C(O)c1cccc2c1Nc1cc(C(F)(F)F)ccc1S2,inactive: 1.47,inactive: 1.65,inactive: -0.132
C[C@@H]1CN(CCCn2c3ccccc3c3ccccc32)C[C@H](C)N1 [Rimcazole hydrochloride],–,inactive: -0.692,–
C[C@@H]1CN(CCCn2c3ccccc3c3ccccc32)C[C@H](C)N1 [Rimcazole],inactive: -1.54,–,inactive: 2.53
CC[N+](=C1C=C/C(=C(\c2cc(ccc2S(=O)(=O)[O-])S(=O)(=O)O)/c2ccc(cc2)N(CC)CC)/C=C1)CC,inactive: 2.7,inactive: -1.19,inactive: -0.378
Clc1ccc(N2CCN(C/C=C/c3ccccc3)CC2)nn1 [lorcinadol],inactive: -1.24,inactive: -2.29,inactive: 0.932
CCN(CC)C(C)CN1c2ccccc2Sc2ccccc21 (stereo unspecified) [Ethopropazine hydrochloride],inactive: -0.0954,–,active: 9.98
CCN(CC)C(C)CN1c2ccccc2Sc2ccccc21 (stereo unspecified),–,inactive: 1.99,–
O=C1NCCCN1CN1CCOCC1,inactive: -1.55,inactive: -1.63,inactive: -1.27
CC(C)C[C@H](NC(=O)[C@@H](Cc1ccccc1)NC(=O)[C@@H](Cc1ccc(O)cc1)NC(=O)CNC(=O)[C@@H](CCCNC(=N)N)NC(=O)[C@H](CO)NC(=O)[C@H](CCC(N)=O)NC(=O)[C@@H](CO)NC(=O)[C@@H](C)NC(=O)[C@@H](Cc1ccccc1)NC(=O)[C@H]1CCCN1C(=O)[C@H](CO)NC(=O)[C@H](CCC(N)=O)NC(=O)[C@@H](Cc1ccccc1)NC(=O)[C@@H](CCC(=O)O)NC(=O)[C@@H](CCC(=O)O)NC(=O)[C@H](CC(=O)O)NC(=O)[C@@H](NC(=O)[C@H](CCCNC(=N)N)NC(=O)[C@H](N)Cc1ccccc1)C(C)C)C(=O)N[C@@H](Cc1ccccc1)C(=O)N[C@@H](CCCNC(=N)N)C(=O)N1CCC[C@@H]1C(=O)N[C@H](CCCNC(=N)N)C(=O)N[C@H](CC(N)=O)C(N)=O,inactive: 0.609,inactive: -0.401,inactive: 4.31
Cn1cc(-c2[nH]c3cc(NC(=O)[C@H](N)C4CCCCC4)cc4c3c2C=NNC4=O)cn1,inactive: -0.501,inactive: -1.2,inactive: -1.46
CCN(CC)CCOCCOC(c1c(C)cccc1C)c1c(C)cccc1C,inactive: 0.612,inactive: -0.954,inactive: 0.784
COC12CCC(c3ccc(COC(C)(C)C(=O)O)cc3)(CC1)CC2,inactive: -0.307,inactive: 0.322,inactive: -0.56
C/C(=C\c1ccccc1)CN/N=C(\C)C(=O)O,inactive: -1.67,inactive: -1.59,inactive: 0.202
CC(C)[C@H](NC(=O)[C@@H]1CSSC(C)(C)C(NC(=O)[C@@H](N)CC(=O)O)C(=O)N[C@@H](Cc2ccccc2)C(=O)N[C@H](Cc2c[nH]c3ccccc23)C(=O)NC(CCN)C(=O)N[C@@H](Cc2ccc(O)cc2)C(=O)N1)C(=O)O (stereo partly specified),inactive: -0.873,inactive: -0.737,inactive: -1.01
"CC1(C)CCC(CN2CCN(c3ccc(C(=O)NS(=O)(=O)c4ccc(NCC5CCOCC5)c([N+](=O)[O-])c4)c(Oc4cnc5[nH]ccc5c4)c3)CC2)=C(c2ccc(Cl)cc2)C1 [chronic lymphocytic leukaemia therapy, AbbVie]",inactive: 2.1,inactive: -1.57,active: 5.8
CC(=O)SCC(CC(=O)c1ccc(C)cc1)C(=O)O (stereo unspecified) [Esonarimod],inactive: -0.86,inactive: 2.25,inactive: 0.559
CCC(C(=O)O)c1ccc(N2Cc3ccccc3C2=O)cc1 (stereo unspecified) [indobufen],inactive: -2.73,inactive: -0.539,inactive: -0.195
c1ccc(C(OC2CCN(CCCc3nnn[nH]3)CC2)c2ccccc2)cc1,inactive: -3.69,inactive: -0.38,inactive: 1.77
CC(C)OC(=O)C(C(=O)OC(C)C)=C1SC=CS1 [malotilate],inactive: 0.00115,inactive: 0.807,inactive: 0.596
CCCc1nc(C(F)(F)F)ccc1/C=C/C(=O)N[C@H](C)c1cc(F)c(NS(C)(=O)=O)c(F)c1,inactive: 0.349,inactive: 1.88,inactive: 1.91
